According to US10159667B2, “Composition containing a DPP-IV inhibitor for preventing or treating renal diseases” (DONG-A ST CO., LTD, priority 2013, dated 2018):
At least one compound was matched to its structure with a doubt left.

System: podocytes
Test: Nephrin expression in podocytes under glucose and angiotensin II stimuli (western blot)
Type: cell-based
Conditions: 72 hours, 30 mM glucose and 100 nM angiotensin II, FIG. 18
Protocol: Effects of DA1229, linagliptin, saxagliptin and sitagliptin on nephrin expression under stimuli of glucose and angiotensin II that are same to the stimulation occurring in diabetes were observed below.
Podocytes were cultured for 72 hours in media containing 30 mM of glucose, 100 nM of angiotensin II; and any one of 10 nM of DA1229, 10 nM of linagliptin, 1 nM of saxagliptin and 10 nM of sitagliptin. After that, the media were removed; cells were lysed; and changes of intracellularly expressed nephrin were measured through western blot by using polyclonal antibody (Santa Crúz, SC-19000.)

CC#CCn1c(N2CCC[C@@H](N)C2)nc2c1c(=O)n(Cc1nc(C)c3ccccc3n1)c(=O)n2C [linagliptin]
nephrin expression in podocytes (10 nM): higher than the group treated only with glucose and angiotensin II, but much lower than the group treated with DA1229

N#C[C@@H]1C[C@@H]2C[C@@H]2N1C(=O)[C@@H](N)C12CC3CC(CC(O)(C3)C1)C2 [saxagliptin]
nephrin expression in podocytes (1 nM): higher than the group treated only with glucose and angiotensin II, but much lower than the group treated with DA1229
